Results from article PMC3207863.

Biological target: T1, GST fusion protein of the RUN domain of mouse Plekhm1 (mouse) (UniProt Q7TSI1)
T1 sequence: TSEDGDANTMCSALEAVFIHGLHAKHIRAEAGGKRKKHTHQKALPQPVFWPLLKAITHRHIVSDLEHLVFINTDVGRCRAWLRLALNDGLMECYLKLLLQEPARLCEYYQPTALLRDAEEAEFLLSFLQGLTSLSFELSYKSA
Assay: affinity purification with mass spectrometry; 2 µg GST or GST fusion protein on glutathione beads, 2 mg mature osteoclast lysate, 2 hours at 4°C, IP buffer (20 mM Hepes pH 7.4, 120 mM NaCl, 5% glycerol, 0.5 mM EDTA, 0.2% NP-40); Coomassie blue staining and mass spectrometry of the band; only the target purified

B1: LIS1 (PAFAH1b1, platelet-activating factor acetylhydrolase isoform 1b subunit 1), endogenous (protein, UniProt P63005 1-410)
chain: MVLSQRQRDELNRAIADYLRSNGYEEAYSVFKKEAELDMNEELDKKYAGLLEKKWTSVIRLQKKVMELESKLNEAKEEFTSGGPLGQKRDPKEWIPRPPEKYALSGHRSPVTRVIFHPVFSVMVSASEDATIKVWDYETGDFERTLKGHTDSVQDISFDHSGKLLASCSADMTIKLWDFQGFECIRTMHGHDHNVSSVAIMPNGDHIVSASRDKTIKMWEVQTGYCVKTFTGHREWVRMVRPNQDGTLIASCSNDQTVRVWVVATKECKAELREHEHVVECISWAPESSYSSISEATGSETKKSGKPGPFLLSGSRDKTIKMWDVSTGMCLMTLVGHDNWVRGVLFHSGGKFILSCADDKTLRVWDYKNKRCMKTLNAHEHFVTSLDFHKTAPYVVTGSVDQTVKVWECR
  binding: binds

No constants are given. Whether binding was seen depends on the method and setting. In cells and extracts the contact can be indirect. Here binding means that the protein was enriched with, or labelled near, the bait; the list need not be complete. Tags and fused reporters may be left off the sequences shown.
